# At least one structure is not confirmed: it was looked up by name or label, or the drawing left a doubt.
# System: skin graft rejection
# Experiment: Skin graft transplantation model for HVGD
# Format: in vivo, mice
# Conditions: B10.D2 → BALB/c; doses of Table 4
# Protocol: Recipient mice were dorsally transplanted with circular pieces of donor skin. Mice were inspected daily. Grafts were considered rejected when no viable donor epidermis remained. The results are expressed in mean survival time (MST). P values were obtained by analysis of variance (ANOVA).
# […] The first Cop 1 treatment on day −7 was injected sc in ICFA as a depot dose. Control mice were treated daily with PBS alone and PBS with ICFA on day −7 before transplantation.
# Grafts were inspected daily. Rejection was considered positive when no viable donor epidermis remained. […]
structure (smiles),measurement,value
C=CC[C@@H]1/C=C(\C)C[C@H](C)C[C@H](OC)[C@H]2O[C@@](O)(C(=O)C(=O)N3CCCC[C@H]3C(=O)O[C@H](/C(C)=C/[C@@H]3CC[C@@H](O)[C@H](OC)C3)[C@H](C)[C@@H](O)CC1=O)[C@H](C)C[C@@H]2OC [FK506],effect on graft survival in the skin transplantation system,significantly improved

# From patent publication US7053043B1, “Pharmaceutical compositions comprising synthetic peptide copolymers and methods for preventing and treating GVHD and HVGD” (Yeda Research and Development Co.Ltd., priority 1999, dated 2006)
